{"sequences": {"note": "Protein sequences, listed by entry. Tags and fused reporters are not part of them. Residues count along the entry.", "UniProt Q9UJX6, 685-754": "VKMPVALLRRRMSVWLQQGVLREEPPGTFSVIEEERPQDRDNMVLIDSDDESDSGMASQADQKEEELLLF"}, "source": "patent US9598441B2", "about": "“Therapeutic compounds and methods” (Wayne State University, priority 2011, dated 2017)", "target": "Gst-APC-2 (685-754) (Homo sapiens, UniProt Q9UJX6)", "assay": "FPA direct binding of fluorescein-tagged A-epitope peptide to Gst-APC-2 (685-754)", "parameters": "made in house; host or cells: E. coli BL-21 (DE3)", "note": "Values joined by “and” are separate entries in the source; they are usually repeats but may differ in a detail not shown here. Equal values may be shown once. At least one compound was matched to its structure with a doubt left. No end group written: not given here."}
{"sequence": "TLGLHLSRAQVKKLLNKVVLRESCFYRKLT [A-epitope peptide]", "values": [{"measurement": "Kd", "setting": "absence of detergent", "result": 104, "unit": "nM"}, {"measurement": "Kd", "setting": "presence of detergent (0.01% triton-X100)", "result": "485 nM and 480 nM"}]}
